In this assay the test system is PA-1. The assay can be described thus: Cell proliferation assay (MTT). It is filed as cell-based. The following applies: Homo sapiens, PA-1, read-out: Anti-proliferative activity (GI50) PA-1. The protocol:
Cells were seeded in a 96-well cell culture plates at a concentration of 10,000 cells per well and incubated at 37° C. in CO2 incubator.
Twenty-four hours later cells were treated with different concentrations (100, 10, 1, 0.1, and 0.01 μM) of compound dissolved in DMSO and incubated for 48 hours. For To measurement, 24 hours after seeding the cells, 20 μL of 3-(4.5-dimethyl-2- thiazolyl)-2,5-diphenyl-2H-tetrazolium (MTT) solution per well was added to the T0 plate and incubated for 3 hours at 37° C. in a CO2 incubator.
The plate containing cells and test compounds was treated similarly after 48 hours of incubation. After 3 hours of MTT addition, well contents were aspirated carefully followed by addition of 100 μL DMSO per well. Plates were agitated to ensure dissolution of the formazan crystals in DMSO and absorbance was read at 570 nm (A570). […] From the percentage growths a dose response curve was generated and GI50 values were interpolated from the growth curves.

In patent US20120101099A1, “HISTONE DEACETYLASE INHIBITORS” (ANTHEM BIOSCIENCES PRIVATE LIMITED, priority 2009, published 2012) one finds GI50 data, which are given here for 1 compound.

As usually defined, the GI50 is the concentration giving 50% growth inhibition. In the case of `O=C(CCCCCCC(=O)Nc1ccccc1)NO` [SAHA, Suberoylanilide Hydroxamic Acid, reference compound], the GI50 worked out at 300 ± 50 nM.
